Assay results

Data taken from PubChem BioAssay AID493106, deposited by NCATS (2011).

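Luciferase light output from ELG1-tagged HEK293T cells is measured after a 16 h incubation to detect compounds that raise ELG1 levels.
Seven concentrations were tested, spanning about 0.0029 to 46 µM.
The number is the fitted AC50 for reporter induction; a lower value means a more potent activator.
Calls come from curve class and fitted log AC50 scored 0–100: inactive scores 0, inconclusive scores 1–39, active scores 40–100.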

Values are in µM.
Every entry below has the call inconclusive.
Only part of the assay is shown, chiefly results filed as inconclusive.
A potency from a partial, single-point or poor curve is only a rough figure.
Some entries filed as inconclusive have a full curve.
Activity scores are not listed here.

SMILES	Potency (µM)	remark
Nc1ncnc2c1ncn2C1CCCC1	2.31	activator, partial curve, poor fit
OCc1ccc(-c2nn(Cc3ccccc3)c3ccccc23)o1	11.58	activator, partial curve, poor fit
NS(=O)(=O)C#Cc1ccccc1	29.08	activator, single point
Cc1ccccc1CNc1ncnc2c1ncn2C1OC(CO)C(O)C1O (configuration not stated)	0.1299	activator, full curve
Nc1nc2c(cnn2CCc2ccccc2)c2nc(-c3ccco3)nn12	10.32	activator, partial curve, poor fit
NC(Cc1ccc(N(CCCl)CCCl)cc1)C(=O)O (configuration not stated)	29.08	activator, partial curve, poor fit
c1cnc2c(c1)ccc1cccnc12	3.263	activator, single point
CCNC(=O)[C@H]1O[C@@H](n2cnc3c(N)ncnc32)[C@H](O)[C@@H]1O	0.0116	activator, full curve, poor fit
CCCCCCCC/C=C\CCCCCCCC(=O)NCCc1ccc(O)c(O)c1	14.57	activator, single point
CCC1(O)CC2CN(CCc3c([nH]c4ccccc34)[C@@](C(=O)OC)(c3cc4c(cc3OC)N(C)C3[C@]45CCN4CC=C[C@@](CC)([C@@H](OC(C)=O)[C@]3(O)C(=O)OC)[C@H]45)C2)C1 (some centres not stated)	0.651	activator, full curve
NCCCS(=O)(=O)O	29.08	activator, partial curve, poor fit
Nc1ncnc2c1nc(Sc1ccc(Cl)cc1)n2[C@H]1OC2COP(=O)(O)O[C@@H]2C1O (some centres not stated)	6.51	activator, partial curve, poor fit
Nc1nc(N)c2nc(-c3ccccc3)c(N)nc2n1	18.35	activator, single point
Nc1nc(OCc2ccccc2)c2[nH]cnc2n1	18.35	activator, partial curve
CCN(CC)CCCCCCCCOC(=O)c1cc(OC)c(OC)c(OC)c1	32.63	activator, single point
CCCCCCCCCCCCCCCCCCOC[C@H](COP(=O)([O-])OCC[N+](C)(C)C)OC	20.59	activator, single point
O=c1cc(-c2ccc(O)cc2)oc2cc(O)cc(O)c12	3.263	activator, single point
COc1cc([C@@H]2c3cc4c(cc3[C@H](O)C3COC(=O)[C@@H]32)OCO4)cc(OC)c1OC (some centres not stated)	0.0411	activator, full curve
C[C@@H]1O[C@H](C[N+](C)(C)C)C[C@H]1O	0.092	activator, full curve, poor fit
NC(=Nc1ccccc1)NC(=O)c1nc(Cl)c(N)nc1N	0.5171	activator, full curve, poor fit
CNC(=O)[C@H]1O[C@@H](n2cnc3c(NCc4cccc(I)c4)ncnc32)[C@H](O)[C@@H]1O	2.908	activator, partial curve
CCCC1(C)C(C#N)(C#N)C1(C#N)C#N	2.908	activator, full curve
COc1ccc2c(c1)/C(=C/c1cnc[nH]1)C(=O)N2	0.651	activator, partial curve, poor fit
Nc1nc2ccc(OC(F)(F)F)cc2s1	16.35	activator, partial curve

Some entries from above, unchanged:

| SMILES | Potency (µM) | remark |
|---|---|---|
| `Nc1nc2c(cnn2CCc2ccccc2)c2nc(-c3ccco3)nn12` | 10.32 | activator, partial curve, poor fit |
| `Nc1nc(N)c2nc(-c3ccccc3)c(N)nc2n1` | 18.35 | activator, single point |
| `OCc1ccc(-c2nn(Cc3ccccc3)c3ccccc23)o1` | 11.58 | activator, partial curve, poor fit |